Measurements as given in article PMC5827114, “A cryptic RNA-binding domain mediates Syncrip recognition and exosomal partitioning of miRNA targets”.
The exact form of at least one protein or probe is not confirmed. The direction of at least one scale is not stated here. Where a protein sequence is shown, tags need not be part of it.

Molecular target: T1, Syncrip eR1R2R3 (Homo sapiens) (UniProt O60506)
T1 sequence (looked up): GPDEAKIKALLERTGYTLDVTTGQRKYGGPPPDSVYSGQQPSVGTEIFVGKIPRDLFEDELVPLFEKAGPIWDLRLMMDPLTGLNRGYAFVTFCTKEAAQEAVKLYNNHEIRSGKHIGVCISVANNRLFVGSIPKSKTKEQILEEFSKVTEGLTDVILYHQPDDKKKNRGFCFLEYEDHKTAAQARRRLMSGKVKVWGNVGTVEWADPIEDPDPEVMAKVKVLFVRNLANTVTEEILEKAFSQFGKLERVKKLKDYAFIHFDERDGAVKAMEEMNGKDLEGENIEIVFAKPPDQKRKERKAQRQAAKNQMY
Test: BLI
Details: BLI: 5 mM Tris-HCl pH 7.4, 50 mM NaCl, 1 mM TCEP, 0.5 mg/mL BSA, 30 C; recombinant protein; residues 118-428; protein details: His6-SUMO or His, removed by HRV 3C; label: 5'-biotin (BLI); scale: fold lower affinity than NeR1R2R3

“UCACUUUGUAGACCAGGCUGG [miR-3470 full-length]” was tested. Which binding signal did it give?
The binding signal was 6.
